# PubChem BioAssay AID1259286 – Sanger Institute – 2017
# Assay: 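Kinases whose loss adds to targeted drug killing of colorectal cancer cells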 (primary screen)
# Cell system: NCI-H630 human colorectal cancer cells
# Knock-down reagent: siRNA pool against human genes
# Challenge: anchor drugs BYL719 at 1 µM, cetuximab at 5 µg/ml or trametinib at 10 nM, or DMSO vehicle alone; exposure time not given
# Read-out: 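Viability relative to non-targeting pool wells, averaged over replicates, with robust z-score for knock-down alone and a synergy score for each anchor drug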
# Scale: viability z-score, knock-down alone: higher = more viable cells, weaker knock-down effect; viability vs control, knock-down alone: higher = more viable cells; synergy score with trametinib: higher = stronger synergistic killing with trametinib; synergy score with BYL719: higher = stronger synergistic killing with BYL719; synergy score with cetuximab: higher = stronger synergistic killing with cetuximab
# Active means: 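a gene is called essential when its knock-down-alone viability robust z-score is below -3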
# Calls: active = essential when knocked down alone; inactive = not essential alone
# Shown is an unselected part of 794 deposited reagents. In the full data, 17 (2.1%) got an active call. 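Calls use knock-down alone only; synergy above 0.15 marked separately; viability seems capped at control level; exposure time not given.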 A number with no mark means an inactive call. Not stated in the record: the amount of reagent, the time to read-out.
gene,"viability z-score, knock-down alone","viability vs control, knock-down alone (fraction of control)",synergy score with trametinib,synergy score with BYL719,synergy score with cetuximab
NEK11 (NIMA related kinase 11),0.464,1,-0.0479,-0.0577,0.0318
CDK8 (cyclin dependent kinase 8),0.464,1,-0.00781,-0.0814,-0.0713
TBX3 (T-box transcription factor 3),0.464,1,0.0133,-0.0814,0.05
MELK (maternal embryonic leucine zipper kinase),0.464,1,-0.0407,0.0636,-0.121
BMPR2 (bone morphogenetic protein receptor type 2),0.0746,0.985,-0.0493,0.0173,0.0546
"PIKFYVE (phosphoinositide kinase, FYVE-type zinc finger containing)",0.464,1,-0.0479,-0.0674,0.00858
STRADA (STE20 related adaptor alpha),-0.882,0.949,-0.0963,-0.0702,-0.0336
"RELA (RELA proto-oncogene, NF-kB subunit)",0.199,0.99,-0.0574,-0.0299,-0.109
CAMK2D (calcium/calmodulin dependent protein kinase II delta),-0.264,0.972,-0.0741,-0.0618,-0.056
ROCK2 (Rho associated coiled-coil containing protein kinase 2),-0.613,0.959,0.00255,-0.119,0.0211
PLK4 (polo like kinase 4),-2.26,0.897,-0.0869,-0.123,0.0477
STK38L (serine/threonine kinase 38 like),0.339,0.995,-0.0524,0.0397,-0.0281
PRKCQ (protein kinase C theta),0.464,1,0.00687,-0.0662,0.0262
BRD2 (bromodomain containing 2),0.464,1,-0.0479,-0.0578,0.06
MAPK1 (mitogen-activated protein kinase 1),0.464,1,0.0584,-0.003,0.112
LMTK1 (lemur tail kinase 1),-2.42,0.891,-0.131,-0.00444,-0.00423
MINK1 (misshapen like kinase 1),0.258,0.992,0.00578,0.0413,-0.0142
NTRK1 (neurotrophic receptor tyrosine kinase 1),0.464,1,-0.0286,-0.0811,0.0493
GRK5 (G protein-coupled receptor kinase 5),0.464,1,-0.0479,0.0406,0.0388
PIP5K1C (phosphatidylinositol-4-phosphate 5-kinase type 1 gamma),-3.57 (active),0.847,-0.0875,-0.112,0.0283
